Results reported in the supplement of paper PMC10849652.
The other results are listed elsewhere or left out.

The chains behind the UniProt entries cited, without tags or fusion partners. Where a name states a change or a piece, a line headed by the entry shows the natural chain unless it says otherwise.
UniProt Q8TCT7: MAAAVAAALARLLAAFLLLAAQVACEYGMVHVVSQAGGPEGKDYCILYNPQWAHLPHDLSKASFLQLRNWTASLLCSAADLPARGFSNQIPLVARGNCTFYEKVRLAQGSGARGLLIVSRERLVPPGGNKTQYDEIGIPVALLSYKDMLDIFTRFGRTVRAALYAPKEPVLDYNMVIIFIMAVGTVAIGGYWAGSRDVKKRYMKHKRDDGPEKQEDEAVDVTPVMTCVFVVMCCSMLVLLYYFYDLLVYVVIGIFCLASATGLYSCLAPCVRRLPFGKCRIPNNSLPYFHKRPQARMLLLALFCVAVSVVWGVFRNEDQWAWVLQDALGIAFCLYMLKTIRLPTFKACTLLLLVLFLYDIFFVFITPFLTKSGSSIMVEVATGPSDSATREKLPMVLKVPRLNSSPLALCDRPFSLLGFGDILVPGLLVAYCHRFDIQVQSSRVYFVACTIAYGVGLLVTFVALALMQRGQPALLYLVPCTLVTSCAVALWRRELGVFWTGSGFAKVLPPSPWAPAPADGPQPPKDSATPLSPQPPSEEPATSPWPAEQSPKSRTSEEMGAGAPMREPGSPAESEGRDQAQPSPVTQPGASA
UniProt P84103: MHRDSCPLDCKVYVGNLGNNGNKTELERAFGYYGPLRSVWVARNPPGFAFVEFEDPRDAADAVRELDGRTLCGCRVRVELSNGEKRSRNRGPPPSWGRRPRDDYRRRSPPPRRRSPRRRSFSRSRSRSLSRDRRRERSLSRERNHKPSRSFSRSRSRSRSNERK
UniProt P43307: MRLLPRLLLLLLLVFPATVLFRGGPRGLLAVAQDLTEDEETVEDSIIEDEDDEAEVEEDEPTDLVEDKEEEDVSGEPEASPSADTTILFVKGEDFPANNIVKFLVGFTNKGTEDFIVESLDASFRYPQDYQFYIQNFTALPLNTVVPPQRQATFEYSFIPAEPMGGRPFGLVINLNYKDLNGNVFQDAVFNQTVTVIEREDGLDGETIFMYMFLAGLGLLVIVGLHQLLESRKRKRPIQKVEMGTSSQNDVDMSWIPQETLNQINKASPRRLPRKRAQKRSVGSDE
UniProt Q8N0X7: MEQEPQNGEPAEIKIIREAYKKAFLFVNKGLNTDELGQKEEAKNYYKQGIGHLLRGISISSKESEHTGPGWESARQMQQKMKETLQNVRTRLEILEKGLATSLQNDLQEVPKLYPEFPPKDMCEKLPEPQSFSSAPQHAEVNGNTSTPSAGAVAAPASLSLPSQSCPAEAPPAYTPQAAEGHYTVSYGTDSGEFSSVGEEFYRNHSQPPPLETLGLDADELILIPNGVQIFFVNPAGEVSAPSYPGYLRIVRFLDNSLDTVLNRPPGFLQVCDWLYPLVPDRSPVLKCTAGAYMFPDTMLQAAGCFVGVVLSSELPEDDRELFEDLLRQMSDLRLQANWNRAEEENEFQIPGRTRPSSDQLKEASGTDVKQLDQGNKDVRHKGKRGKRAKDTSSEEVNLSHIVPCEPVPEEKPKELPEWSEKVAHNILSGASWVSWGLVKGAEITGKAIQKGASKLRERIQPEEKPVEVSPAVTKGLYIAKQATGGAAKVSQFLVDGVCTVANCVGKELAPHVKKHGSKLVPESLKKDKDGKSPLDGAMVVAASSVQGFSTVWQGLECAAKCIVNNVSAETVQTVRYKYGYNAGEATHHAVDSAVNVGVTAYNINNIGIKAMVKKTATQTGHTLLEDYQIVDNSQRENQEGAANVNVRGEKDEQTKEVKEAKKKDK
UniProt Q05519: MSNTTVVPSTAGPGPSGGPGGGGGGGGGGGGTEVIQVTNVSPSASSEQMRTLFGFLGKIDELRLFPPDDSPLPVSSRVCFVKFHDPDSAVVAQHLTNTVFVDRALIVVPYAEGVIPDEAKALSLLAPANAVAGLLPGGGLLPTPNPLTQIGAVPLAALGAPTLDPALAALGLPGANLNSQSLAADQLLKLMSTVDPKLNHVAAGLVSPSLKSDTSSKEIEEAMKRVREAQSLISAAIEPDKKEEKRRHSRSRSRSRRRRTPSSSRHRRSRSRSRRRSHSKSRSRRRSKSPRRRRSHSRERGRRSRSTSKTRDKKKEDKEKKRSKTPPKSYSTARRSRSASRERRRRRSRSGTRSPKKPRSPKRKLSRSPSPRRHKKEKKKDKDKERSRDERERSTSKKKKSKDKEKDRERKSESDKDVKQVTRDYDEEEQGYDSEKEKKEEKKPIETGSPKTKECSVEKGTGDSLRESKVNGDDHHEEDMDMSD
UniProt Q16629: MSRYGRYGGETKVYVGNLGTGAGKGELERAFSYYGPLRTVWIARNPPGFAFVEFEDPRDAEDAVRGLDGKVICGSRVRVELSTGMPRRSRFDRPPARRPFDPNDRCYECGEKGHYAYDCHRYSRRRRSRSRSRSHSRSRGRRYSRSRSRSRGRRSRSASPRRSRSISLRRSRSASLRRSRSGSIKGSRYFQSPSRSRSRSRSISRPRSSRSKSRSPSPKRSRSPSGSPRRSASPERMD
UniProt O00506, whole entry, looked up: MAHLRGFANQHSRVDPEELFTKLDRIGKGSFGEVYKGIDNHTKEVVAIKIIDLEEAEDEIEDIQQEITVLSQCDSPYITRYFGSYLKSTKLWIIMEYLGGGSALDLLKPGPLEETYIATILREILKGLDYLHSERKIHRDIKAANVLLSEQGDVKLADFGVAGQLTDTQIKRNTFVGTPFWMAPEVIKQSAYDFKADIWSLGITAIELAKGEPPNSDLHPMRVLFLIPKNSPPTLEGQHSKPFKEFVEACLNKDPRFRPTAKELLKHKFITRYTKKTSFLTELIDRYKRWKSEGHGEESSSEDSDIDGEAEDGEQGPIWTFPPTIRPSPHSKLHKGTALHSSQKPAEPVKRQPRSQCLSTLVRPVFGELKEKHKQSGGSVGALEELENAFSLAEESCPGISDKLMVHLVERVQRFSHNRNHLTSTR
UniProt P42224: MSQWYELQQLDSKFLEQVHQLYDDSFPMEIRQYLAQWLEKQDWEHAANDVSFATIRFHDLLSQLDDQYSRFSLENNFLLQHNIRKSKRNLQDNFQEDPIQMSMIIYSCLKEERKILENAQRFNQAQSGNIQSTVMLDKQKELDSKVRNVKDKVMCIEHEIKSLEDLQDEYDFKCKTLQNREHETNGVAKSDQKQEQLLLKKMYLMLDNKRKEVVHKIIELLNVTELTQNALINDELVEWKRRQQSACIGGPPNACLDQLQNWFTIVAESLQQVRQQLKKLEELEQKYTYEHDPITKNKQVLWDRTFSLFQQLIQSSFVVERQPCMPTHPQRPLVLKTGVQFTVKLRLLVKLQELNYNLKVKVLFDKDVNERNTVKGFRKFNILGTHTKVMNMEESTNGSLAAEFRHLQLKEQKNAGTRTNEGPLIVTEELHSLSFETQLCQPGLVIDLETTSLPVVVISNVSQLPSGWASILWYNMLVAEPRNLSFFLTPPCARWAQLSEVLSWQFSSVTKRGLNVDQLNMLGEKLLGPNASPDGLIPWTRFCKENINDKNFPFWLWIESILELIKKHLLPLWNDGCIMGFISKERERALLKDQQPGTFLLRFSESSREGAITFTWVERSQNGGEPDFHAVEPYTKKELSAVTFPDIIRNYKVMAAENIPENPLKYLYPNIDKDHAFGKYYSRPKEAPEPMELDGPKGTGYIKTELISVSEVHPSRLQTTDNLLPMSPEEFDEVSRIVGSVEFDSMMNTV
UniProt O43805: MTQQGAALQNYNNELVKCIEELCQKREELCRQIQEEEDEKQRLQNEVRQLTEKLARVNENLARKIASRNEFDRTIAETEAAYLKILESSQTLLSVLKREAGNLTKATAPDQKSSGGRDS
UniProt Q16385, whole entry, looked up: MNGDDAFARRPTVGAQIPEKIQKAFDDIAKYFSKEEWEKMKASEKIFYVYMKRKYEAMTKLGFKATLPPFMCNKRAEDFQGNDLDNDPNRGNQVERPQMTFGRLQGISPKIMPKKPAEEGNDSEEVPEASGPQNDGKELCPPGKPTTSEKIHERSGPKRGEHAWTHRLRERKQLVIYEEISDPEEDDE
UniProt O15020, whole entry, looked up: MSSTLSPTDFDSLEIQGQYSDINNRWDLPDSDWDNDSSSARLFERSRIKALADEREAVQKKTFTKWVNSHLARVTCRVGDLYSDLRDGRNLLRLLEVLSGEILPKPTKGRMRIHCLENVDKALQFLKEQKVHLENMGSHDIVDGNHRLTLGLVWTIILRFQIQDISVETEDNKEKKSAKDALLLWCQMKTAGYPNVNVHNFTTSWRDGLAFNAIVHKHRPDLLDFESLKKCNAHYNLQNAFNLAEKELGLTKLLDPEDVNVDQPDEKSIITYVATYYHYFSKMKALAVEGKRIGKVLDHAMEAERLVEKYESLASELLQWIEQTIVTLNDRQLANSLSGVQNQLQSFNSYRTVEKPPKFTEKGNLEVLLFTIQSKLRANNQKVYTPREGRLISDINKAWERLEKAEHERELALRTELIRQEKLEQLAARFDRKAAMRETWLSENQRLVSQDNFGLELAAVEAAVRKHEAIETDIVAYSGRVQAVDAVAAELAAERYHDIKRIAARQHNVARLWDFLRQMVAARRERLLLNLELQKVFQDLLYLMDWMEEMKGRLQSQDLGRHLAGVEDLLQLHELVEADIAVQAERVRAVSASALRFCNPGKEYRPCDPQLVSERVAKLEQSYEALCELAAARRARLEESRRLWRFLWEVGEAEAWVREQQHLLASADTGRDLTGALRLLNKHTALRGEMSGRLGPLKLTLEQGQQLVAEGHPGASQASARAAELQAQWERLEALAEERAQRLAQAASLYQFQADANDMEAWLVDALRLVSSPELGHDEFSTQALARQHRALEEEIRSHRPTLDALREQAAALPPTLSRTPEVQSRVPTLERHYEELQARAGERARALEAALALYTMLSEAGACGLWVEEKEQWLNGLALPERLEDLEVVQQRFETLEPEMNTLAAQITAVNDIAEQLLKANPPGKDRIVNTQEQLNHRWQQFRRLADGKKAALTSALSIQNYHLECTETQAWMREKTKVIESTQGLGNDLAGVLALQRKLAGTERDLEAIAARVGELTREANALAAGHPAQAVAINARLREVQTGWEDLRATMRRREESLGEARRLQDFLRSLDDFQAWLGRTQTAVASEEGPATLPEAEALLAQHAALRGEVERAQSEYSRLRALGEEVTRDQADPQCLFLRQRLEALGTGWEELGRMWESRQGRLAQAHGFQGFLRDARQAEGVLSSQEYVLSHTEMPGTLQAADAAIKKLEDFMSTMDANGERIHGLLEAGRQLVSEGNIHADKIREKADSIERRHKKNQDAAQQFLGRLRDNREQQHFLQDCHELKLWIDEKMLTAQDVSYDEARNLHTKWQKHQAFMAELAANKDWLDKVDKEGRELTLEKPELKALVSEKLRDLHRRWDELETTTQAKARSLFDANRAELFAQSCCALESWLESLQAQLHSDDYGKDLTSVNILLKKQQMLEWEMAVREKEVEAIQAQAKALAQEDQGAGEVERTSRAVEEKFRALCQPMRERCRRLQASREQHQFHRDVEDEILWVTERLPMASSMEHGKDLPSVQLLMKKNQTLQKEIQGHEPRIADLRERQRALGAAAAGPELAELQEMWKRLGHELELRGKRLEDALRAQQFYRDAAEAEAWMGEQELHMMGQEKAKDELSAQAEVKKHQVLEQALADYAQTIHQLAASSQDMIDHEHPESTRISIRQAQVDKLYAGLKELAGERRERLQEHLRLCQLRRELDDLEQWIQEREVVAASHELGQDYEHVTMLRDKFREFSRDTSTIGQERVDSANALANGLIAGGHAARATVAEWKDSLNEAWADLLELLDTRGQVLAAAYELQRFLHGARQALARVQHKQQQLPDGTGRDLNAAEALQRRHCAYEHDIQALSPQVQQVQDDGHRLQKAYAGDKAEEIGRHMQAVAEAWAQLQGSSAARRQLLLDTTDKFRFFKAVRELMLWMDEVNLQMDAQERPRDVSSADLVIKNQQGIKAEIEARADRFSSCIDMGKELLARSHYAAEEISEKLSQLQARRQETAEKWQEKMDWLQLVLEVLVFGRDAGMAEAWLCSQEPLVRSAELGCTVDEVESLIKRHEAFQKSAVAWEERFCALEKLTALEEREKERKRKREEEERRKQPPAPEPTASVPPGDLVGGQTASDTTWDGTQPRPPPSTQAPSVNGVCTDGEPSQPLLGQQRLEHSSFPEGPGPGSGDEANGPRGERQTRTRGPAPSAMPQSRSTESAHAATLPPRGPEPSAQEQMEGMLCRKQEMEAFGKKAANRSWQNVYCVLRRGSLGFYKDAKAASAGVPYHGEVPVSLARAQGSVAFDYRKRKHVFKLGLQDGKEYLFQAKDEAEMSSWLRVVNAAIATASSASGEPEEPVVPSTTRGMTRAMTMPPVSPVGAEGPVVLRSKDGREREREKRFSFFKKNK
UniProt Q01130: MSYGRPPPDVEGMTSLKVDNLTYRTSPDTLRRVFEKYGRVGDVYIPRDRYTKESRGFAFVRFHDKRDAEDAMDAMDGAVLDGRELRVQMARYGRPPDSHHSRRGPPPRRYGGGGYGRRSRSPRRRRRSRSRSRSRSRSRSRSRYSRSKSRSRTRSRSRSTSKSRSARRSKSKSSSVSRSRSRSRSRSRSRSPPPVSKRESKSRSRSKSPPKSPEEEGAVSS

What follows are targets tested with CC1=C(C=C(C=C1)NC(=O)C2=CC(=CC=C2)N(C)C)NC(=O)C3=CC=C(C=C3)O (assay: log2 fold change, soluble protein after heating vs DMSO (PISA); higher = thermal stabilisation; K562 cells, 10 uM, 30 min; active = over 0.2 and 3.5 SD of the protein, either way, in both replicates (recomputed)).
Outline: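 K562 cells (2×10^6 cells/mL) were treated with 10 μM compound for 30 min, and aliquots were heated for 3 min over 48°C-58°C. Pooled aliquots were extracted in PBS with 0.5% NP-40 at 4°C, and the supernatant after 21,000xg for 90 min was measured by TMTpro 16plex LC-MS/MS with channel sums equalised. Reported thermal stability, relative to control samples and from duplicates, is a log2 fold change.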

Q: With SPPL2B (UniProt Q8TCT7) as the target, how does the log2 fold change read?
A: inactive: 0.004

Q: How did the log2 fold change turn out when SRSF3 (UniProt P84103) was run?
A: inactive: 0.047

Q: For SRGAP2 (UniProt O75044), which log2 fold change is on record?
A: inactive: 0.011

Q: Which log2 fold change does the source give for SRGN (UniProt P10124) here?
A: inactive: 0.002

Q: Which log2 fold change does the source give for SSR1 (UniProt P43307) here?
A: inactive: 0.015

Q: SPART (UniProt Q8N0X7) was tested. Which log2 fold change did it give?
A: inactive: -0.027

Q: How did the log2 fold change turn out when SRSF11 (UniProt Q05519) was run?
A: inactive: -0.058

Q: STIM1 (UniProt Q13586) was tested. Which log2 fold change did it give?
A: inactive: 0.003

Q: How did the log2 fold change turn out when SRSF7 (UniProt Q16629) was run?
A: inactive: 0.025

Q: STK25 (UniProt O00506) was tested. Which log2 fold change did it give?
A: inactive: 0.014

Q: For SPHK1 isoform 2 (UniProt Q9NYA1), which log2 fold change is on record?
A: inactive: 0.056

Q: SPG7 (UniProt Q9UQ90) was tested. Which log2 fold change did it give?
A: inactive: -0.008

Q: How did the log2 fold change turn out when SPTA1 (UniProt P02549) was run?
A: inactive: 0.055

Q: Which log2 fold change does the source give for SPPL2A (UniProt Q8TCT8) here?
A: inactive: 0.007

Q: Which log2 fold change does the source give for STAT1 (UniProt P42224) here?
A: inactive: 0.026

Q: SRP68 (UniProt Q9UHB9) was tested. Which log2 fold change did it give?
A: inactive: -0.062

Q: For SSNA1 (UniProt O43805), which log2 fold change is on record?
A: inactive: -0.025

Q: For STAT5B (UniProt P51692), which log2 fold change is on record?
A: inactive: -0.102

Q: Which log2 fold change does the source give for STAU1 (UniProt O95793) here?
A: inactive: 0.037

Q: For SPATA5 (UniProt Q8NB90), which log2 fold change is on record?
A: inactive: 0.015

Q: SSRP1 (UniProt Q08945) was tested. Which log2 fold change did it give?
A: inactive: -0.049

Q: For ST6GAL1 (UniProt P15907), which log2 fold change is on record?
A: inactive: -0.032

Q: SSX2 (UniProt Q16385) was tested. Which log2 fold change did it give?
A: inactive: -0.013

Q: For STAM (UniProt Q92783), which log2 fold change is on record?
A: inactive: -0.011

Q: How did the log2 fold change turn out when SQSTM1 (UniProt Q13501) was run?
A: inactive: -0.065

Q: For STK11 (UniProt Q15831), which log2 fold change is on record?
A: inactive: -0.001

Q: For STARD3 (UniProt Q14849), which log2 fold change is on record?
A: inactive: 0.075

Q: SPINDOC (UniProt Q9BUA3) was tested. Which log2 fold change did it give?
A: inactive: 0.037

Q: For ST3GAL2 (UniProt Q16842), which log2 fold change is on record?
A: inactive: -0.054

Q: How did the log2 fold change turn out when SPCS1, A0A5F9YFS9 was run?
A: inactive: 0.007

Q: SRPRA (UniProt P08240) was tested. Which log2 fold change did it give?
A: inactive: -0.06

Q: How did the log2 fold change turn out when SPTBN2 (UniProt O15020) was run?
A: inactive: 0.015

Q: Which log2 fold change does the source give for SRSF2 (UniProt Q01130) here?
A: inactive: 0.053

Q: Which log2 fold change does the source give for SRM (UniProt P19623) here?
A: inactive: 0

Q: With SREK1 isoform 2 (UniProt Q8WXA9) as the target, how does the log2 fold change read?
A: inactive: -0.083

Q: For SRP72 (UniProt O76094), which log2 fold change is on record?
A: inactive: -0.01

Q: With SRP54 (UniProt P61011) as the target, how does the log2 fold change read?
A: inactive: -0.026

Q: How did the log2 fold change turn out when ST7 (UniProt Q9NRC1) was run?
A: inactive: 0.013
